The results in this text go back to US9249087B2, “HDAC inhibitors and therapeutic methods using the same” (THE BOARD OF TRUSTEES OF THE UNIVERSITY OF ILLINOIS, priority 2011, dated 2016).

Amino acid sequences for entries named in this document (tags omitted).
UniProt Q9UBN7, whole entry: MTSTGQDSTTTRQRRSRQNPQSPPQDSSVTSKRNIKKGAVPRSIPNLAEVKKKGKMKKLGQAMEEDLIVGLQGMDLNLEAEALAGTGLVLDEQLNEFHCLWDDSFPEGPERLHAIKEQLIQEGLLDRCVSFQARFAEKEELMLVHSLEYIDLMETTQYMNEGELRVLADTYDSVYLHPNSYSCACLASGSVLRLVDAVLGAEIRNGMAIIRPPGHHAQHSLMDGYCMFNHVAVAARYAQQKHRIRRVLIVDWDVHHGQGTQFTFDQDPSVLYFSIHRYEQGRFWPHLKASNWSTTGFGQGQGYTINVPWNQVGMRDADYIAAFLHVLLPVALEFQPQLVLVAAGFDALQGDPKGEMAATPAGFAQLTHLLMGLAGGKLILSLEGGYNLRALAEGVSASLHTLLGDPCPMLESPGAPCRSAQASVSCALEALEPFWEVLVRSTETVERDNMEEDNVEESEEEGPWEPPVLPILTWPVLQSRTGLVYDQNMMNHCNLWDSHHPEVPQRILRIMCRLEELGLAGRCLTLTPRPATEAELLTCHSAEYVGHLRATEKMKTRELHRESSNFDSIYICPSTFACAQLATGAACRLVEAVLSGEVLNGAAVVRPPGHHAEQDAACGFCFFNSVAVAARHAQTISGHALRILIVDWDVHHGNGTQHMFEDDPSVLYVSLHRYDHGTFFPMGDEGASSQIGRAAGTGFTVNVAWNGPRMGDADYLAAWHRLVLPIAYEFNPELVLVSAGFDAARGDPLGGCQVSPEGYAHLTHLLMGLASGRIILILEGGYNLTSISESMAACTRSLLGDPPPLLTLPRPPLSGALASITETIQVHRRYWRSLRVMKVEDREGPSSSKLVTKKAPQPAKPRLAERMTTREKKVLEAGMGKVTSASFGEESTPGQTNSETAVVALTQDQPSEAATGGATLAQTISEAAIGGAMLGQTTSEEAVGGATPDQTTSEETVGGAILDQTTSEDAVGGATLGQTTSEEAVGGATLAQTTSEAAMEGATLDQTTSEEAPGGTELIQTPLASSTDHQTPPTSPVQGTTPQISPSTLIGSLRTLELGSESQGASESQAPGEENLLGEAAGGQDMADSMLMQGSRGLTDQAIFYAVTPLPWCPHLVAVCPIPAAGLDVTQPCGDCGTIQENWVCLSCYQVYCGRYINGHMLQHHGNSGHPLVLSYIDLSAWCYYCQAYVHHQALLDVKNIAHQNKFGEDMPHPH

The target in the assay is Human HDAC6 (Homo sapiens (Human), UniProt Q9UBN7). In words: HDAC6 fluorogenic peptide deacetylation inhibition assay. The class given is biochemical.

The structures given here were assigned with low confidence; some may be wrong.

For `O=C(NO)c1ccc(Cn2cc(Cc3ccccc3)c3ccccc32)cc1`, for the setting “binding efficiency index, BEI=pIC50/MW, MW in kDa”, the BEI stood at 20.9.
Regarding `O=C(NO)c1ccc(CN(c2ccccc2)c2ccccc2)cc1`, the HDAC6 Selectivity (HDAC1/HDAC6) (ratio HDAC1 IC50/HDAC6 IC50) stood at 1.48.
